This series can be described thus: Extraction recovery of analytes from rat plasma (method validation, sample preparation optimization).
The mark [1] stands for this setting: sample preparation with Acetonitrile.
Where [2] appears, read: sample preparation with Ethyl acetate.
Setting [3] is: sample preparation with Methanol.

As to `O=c1c(O)c(-c2ccc(O)c(O)c2)oc2cc(O)cc(O)c12` [Quercetin, quercetin], the Extraction recovery turned out to be 85% under setting [1], 86% under setting [2] and 20% under setting [3].

As for `COc1ccc(-c2cc(=O)c3c(O)cc(O)cc3o2)cc1` [Acacetin, acacetin], the Extraction recovery reads like this: under setting [1], 76%; under setting [2], 81%; under setting [3], 70%.

Turning to `O=c1cc(-c2ccc(O)cc2)oc2cc(O)cc(O)c12` [Apigenin, apigenin], the Extraction recovery is, setting by setting: under setting [1], 79%; under setting [2], 3%; under setting [3], 73%.

In the case of `O=c1c(O)c(-c2ccc(O)c(O)c2)oc2cc(O[C@@H]3O[C@H](CO)[C@@H](O)[C@H](O)[C@H]3O)cc(O)c12` [Quercetin-7-O-β-D-glucoside, quercetin-7-O-β-D-glucoside], the Extraction recovery is, setting by setting: under setting [1], 73%; under setting [2], 74%; under setting [3], 15%.

Turning to `O=C(O)[C@H]1O[C@@H](Oc2cc3oc(-c4ccccc4)cc(=O)c3c(O)c2O)[C@H](O)[C@@H](O)[C@@H]1O` [Baicalin, baicalin], the Extraction recovery reads like this: under setting [1], 80%; under setting [2], 2%; under setting [3], 69%.

On to `COc1c(O[C@@H]2O[C@H](C(=O)O)[C@@H](O)[C@H](O)[C@H]2O)cc2oc(-c3ccccc3)cc(=O)c2c1O` [Oroxylin A-7-O-β-D-glucuronide, oroxylin A-7-O-β-D-glucuronide], for which the Extraction recovery is 76% under setting [1], 73% under setting [2] and 56% under setting [3].

Consider `O=c1cc(-c2ccccc2)oc2cc(O[C@@H]3O[C@H](CO)[C@@H](O)[C@H](O)[C@H]3O)c(O)c(O)c12` [Oroxin A, oroxin A], for which the Extraction recovery by setting is: under setting [1], 83%; under setting [2], 77%; under setting [3], 67%.

In the case of `O=c1cc(-c2ccc(O)cc2)oc2cc(O)c(O)c(O)c12` [Scutellarein, scutellarein], the Extraction recovery was found to be 94% under setting [1], 87% under setting [2] and 19% under setting [3].

Take `O=c1cc(-c2ccccc2)oc2cc(O)cc(O)c12` [Chrysin, chrysin]: the Extraction recovery is, setting by setting: under setting [1], 75%; under setting [2], 67%; under setting [3], 72%.

With `O=C(O)[C@H]1O[C@@H](Oc2cc(O)c3c(=O)cc(-c4ccccc4)oc3c2)[C@H](O)[C@@H](O)[C@@H]1O` [Chrysin-7-O-β-D-glucuronide, chrysin-7-O-β-D-glucuronide], the Extraction recovery was 80% under setting [1], 6% under setting [2] and 71% under setting [3].

For the compound `COc1c(O)cc2oc(-c3ccccc3)cc(=O)c2c1O` [Oroxylin A, oroxylin A], the Extraction recovery by setting is: under setting [1], 78%; under setting [2], 92%; under setting [3], 65%.

In turn, `COc1c(O)cc2oc(-c3ccc(O)cc3)cc(=O)c2c1O` [Hispidulin, hispidulin] came in with an Extraction recovery under setting [1] of 78%, an Extraction recovery under setting [2] of 73% and an Extraction recovery under setting [3] of 71%.

Turning to `O=c1cc(-c2ccccc2)oc2cc(O[C@@H]3O[C@H](CO[C@@H]4O[C@H](CO)[C@@H](O)[C@H](O)[C@H]4O)[C@@H](O)[C@H](O)[C@H]3O)c(O)c(O)c12` [Oroxin B, oroxin B], the Extraction recovery reads like this: under setting [1], 85%; under setting [2], 8%; under setting [3], 69%.

For the compound `O=c1cc(-c2ccccc2)oc2cc(O)c(O)c(O)c12` [Baicalein, baicalein], the Extraction recovery by setting is: under setting [1], 92%; under setting [2], 64%; under setting [3], 38%.

For `COc1c(O[C@@H]2O[C@H](C(=O)O)[C@@H](O)[C@H](O)[C@H]2O)cc(O)c2c(=O)cc(-c3ccccc3)oc12` [Wogonoside, wogonoside], the Extraction recovery worked out at 75% under setting [1], 8% under setting [2] and 75% under setting [3].
